Values of other authors in patent US8557733B2, “Composition for regenerating and stimulating growth of plants and for adapting plants to different stress factors” (Mitotech S.A., priority 2006, dated 2013).
Some of these results come from one statement about several compounds together. For at least one compound, name, drawing or mass did not settle the structure.

Test system: maize callus cultures
Details: in a majority of tested genotypes; cited from earlier work

C1=CC2C=CC1C2 [norbornadiene]
rise of regeneration efficiency: 15-20%
